Drawing on PMC7879635, this text covers binding for 1 substance.

Sequences of proteins named here, by UniProt entry; tags and fusion partners are left off. Residues count along the entry.
UniProt P35739, residues 33-799: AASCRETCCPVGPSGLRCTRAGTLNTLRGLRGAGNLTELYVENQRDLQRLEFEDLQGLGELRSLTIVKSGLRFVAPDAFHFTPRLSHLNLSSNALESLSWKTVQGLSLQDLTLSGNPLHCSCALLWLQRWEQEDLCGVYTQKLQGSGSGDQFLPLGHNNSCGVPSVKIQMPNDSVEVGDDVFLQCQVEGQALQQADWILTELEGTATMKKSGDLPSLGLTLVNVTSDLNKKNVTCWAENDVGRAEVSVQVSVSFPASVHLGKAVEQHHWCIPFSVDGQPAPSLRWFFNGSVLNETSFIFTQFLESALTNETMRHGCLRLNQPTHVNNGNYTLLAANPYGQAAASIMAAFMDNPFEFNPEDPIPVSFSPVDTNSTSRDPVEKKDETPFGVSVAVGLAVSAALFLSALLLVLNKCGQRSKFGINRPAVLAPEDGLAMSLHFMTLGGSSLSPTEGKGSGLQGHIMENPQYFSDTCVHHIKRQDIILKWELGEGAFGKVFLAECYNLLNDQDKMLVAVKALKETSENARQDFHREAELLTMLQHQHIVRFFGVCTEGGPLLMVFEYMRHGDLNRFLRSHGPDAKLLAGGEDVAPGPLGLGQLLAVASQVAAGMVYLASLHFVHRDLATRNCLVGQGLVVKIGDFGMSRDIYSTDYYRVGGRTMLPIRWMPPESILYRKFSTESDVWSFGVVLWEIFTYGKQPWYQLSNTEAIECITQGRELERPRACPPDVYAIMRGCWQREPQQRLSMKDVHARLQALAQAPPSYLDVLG
UniProt Q8K4S7: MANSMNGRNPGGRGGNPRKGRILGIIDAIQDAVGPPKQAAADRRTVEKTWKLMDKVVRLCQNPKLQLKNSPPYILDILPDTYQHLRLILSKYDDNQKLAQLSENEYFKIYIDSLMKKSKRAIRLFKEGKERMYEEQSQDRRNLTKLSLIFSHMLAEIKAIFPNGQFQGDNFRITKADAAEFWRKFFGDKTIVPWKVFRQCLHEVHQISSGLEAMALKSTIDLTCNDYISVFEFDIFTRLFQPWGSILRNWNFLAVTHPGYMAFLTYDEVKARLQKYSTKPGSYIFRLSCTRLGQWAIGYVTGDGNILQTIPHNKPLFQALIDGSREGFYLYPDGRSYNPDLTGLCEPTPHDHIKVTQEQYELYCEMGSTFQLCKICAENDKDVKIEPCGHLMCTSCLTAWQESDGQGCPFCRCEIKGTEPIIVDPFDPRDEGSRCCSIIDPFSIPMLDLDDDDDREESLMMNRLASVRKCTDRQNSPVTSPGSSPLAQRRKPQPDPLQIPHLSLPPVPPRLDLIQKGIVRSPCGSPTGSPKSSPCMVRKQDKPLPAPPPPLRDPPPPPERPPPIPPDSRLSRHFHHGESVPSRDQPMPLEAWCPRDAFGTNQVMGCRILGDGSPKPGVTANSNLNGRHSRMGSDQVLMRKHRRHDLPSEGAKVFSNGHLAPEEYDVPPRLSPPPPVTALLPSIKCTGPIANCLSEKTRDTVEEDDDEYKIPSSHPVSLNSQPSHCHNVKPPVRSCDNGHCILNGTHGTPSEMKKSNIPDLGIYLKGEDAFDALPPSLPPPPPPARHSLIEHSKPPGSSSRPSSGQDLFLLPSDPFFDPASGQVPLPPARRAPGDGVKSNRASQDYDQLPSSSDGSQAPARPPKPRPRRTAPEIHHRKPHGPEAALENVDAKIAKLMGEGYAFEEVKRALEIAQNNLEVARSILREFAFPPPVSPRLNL

These are yes or no findings as the source states them, for the method shown. In cells and extracts the contact can be indirect. Some binding calls cover weakened binding; strength is not graded here.

For the test, the target named is TrkA (rat (endogenous in PC12)) (UniProt P35739). Briefly: co-IP; precipitation with a primary antibody against TrkA from PC12 cells with knockdown or overexpression of Cblb or Cbl; Cblb and Cbl detected by western blot. For orientation: Immunoblotting shows a protein as a band on a membrane.

On to “Cblb (from UniProt Q8K4S7 1-938) (enzyme)”, for which the binding result is “binds”.
